Results reported in patent US20180072815A1.
Where two headings read alike, the source gives them in different places. No constants are given. Whether binding was seen depends on the method and setting. Some entries that bind do so weakly or less than the wild type.

By UniProt entry, the sequences of proteins in these tests, tags left out. Residues count along the entry.
UniProt P01375, residues 77-233: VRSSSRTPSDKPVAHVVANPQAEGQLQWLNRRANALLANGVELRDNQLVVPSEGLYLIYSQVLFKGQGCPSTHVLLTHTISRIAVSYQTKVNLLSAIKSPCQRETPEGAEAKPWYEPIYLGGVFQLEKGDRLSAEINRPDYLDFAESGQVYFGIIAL

Tests used:
[1] = biological target: active human TNF-α full length protein (Abcam) (human) (UniProt P01375); experiment: ELISA on coated TNF-α, four 10-fold dilutions of sdAb starting at 1 µg/mL
[2] = biological target: active human TNF-α full length protein (Abcam) (human) (UniProt P01375); experiment: ELISA on coated TNF-α
[3] = biological target: active human TNF-α full length protein (Abcam) (human) (UniProt P01375)
[4] = biological target: active human TNF-α full length protein (Abcam) (human) (UniProt P01375); remark: listed apart in the source

- binding [1]: binds
- binding [2]: binds
- binding [3]: binds
- binding [4]: binds
B1: anti-TNF-α VHH69 (SEQ ID NO:46) sdAb (VHH)
VHH: EVQLVESGGGSVLAGGSLRLSCVASGFTSRYNYMAWFRQAPGKEREGVATIGTASGSADYYGSVKDRFTISQDNAKNTVYLQMNSLKPEDTAMYYCAARTYGTISLTPSDYRYWGQGTLVTVSS
